Assay results published in EP1179050B1, “METHOD FOR THE PURIFICATION OF PROTEIN KINASE BY AFFINITY CHROMATOGRAPHY” (University of Tartu, priority 1999, dated 2000).
At least one peptide structure holds a part that was inferred or is arguable (an end, a ring closure or a residue). Where a SMILES comes first, the peptide text is derived from it. The star is where a group is joined. Adenosine(5'-uronoyl) = Nc1ncnc2c1ncn2[C@@H]1O[C@H](C(=O)*)[C@@H](O)[C@H]1O; Ahx = NCCCCCC(=O)O

Experiments:
[1] = target: Ca^2+-dependent protein kinase (CDPK-1); experiment: Ca2+-dependent protein kinase (CDPK-1) activity inhibition, [γ-32P]ATP phosphocellulose paper assay; format: biochemical, maize; settings: 30°C, pH 7.5, 50 µM substrate peptide, 30 µM [γ-32P]ATP
Protein Kinase C = experiment: Inhibition constant for PKC (Table 3); format: biochemical

SMILES	IC50 [1]	Ki (Protein Kinase C)
N=C(N)NCCC[C@H](NC(=O)[C@H](CCCNC(=N)N)NC(=O)CCCCCNC(=O)[C@H]1O[C@@H](n2cnc3c(N)ncnc32)[C@H](O)[C@@H]1O)C(=O)O [Inhibitor XI, AdoC(Ahx)Arg2]	35 ± 3 µM	–
N=C(N)NCCC[C@H](NC(=O)[C@H](CCCNC(=N)N)NC(=O)[C@H](CCCNC(=N)N)NC(=O)[C@H](CCCNC(=N)N)NC(=O)CCCCCNC(=O)[C@H]1O[C@@H](n2cnc3c(N)ncnc32)[C@H](O)[C@@H]1O)C(=O)O [Inhibitor X, AdoC(Ahx)Arg4] ({Adenosine(5'-uronoyl)-Ahx}-RRRR-OH)	52 ± 8 µM	–
CC(=O)NCCCCCC(=O)N[C@@H](CCCNC(=N)N)C(=O)N[C@@H](CCCNC(=N)N)C(=O)N[C@@H](CCCNC(=N)N)C(=O)N[C@@H](CCCNC(=N)N)C(=O)N[C@@H](CCCNC(=N)N)C(=O)N[C@@H](CCCNC(=N)N)C(=O)O [Ac(amino-hexanoic acid)Arg6, Ac(Ahx)Arg6]	–	8820 nM
N=C(N)NCCC[C@H](NC(=O)[C@H](CCCNC(=N)N)NC(=O)[C@H](CCCNC(=N)N)NC(=O)[C@H](CCCNC(=N)N)NC(=O)[C@H](CCCNC(=N)N)NC(=O)[C@@H](N)CCCNC(=N)N)C(=O)O [Arg6]	–	7440 nM
